The assay has as its target HINT1 immunoprecipitated for mass spectrometry (cells not stated) (UniProt P49773). In words: affinity purification with mass spectrometry; interacting proteins of HINT1 pulled down by Co-IP using the antibody of HINT1 and identified by MS; cells not given.

Amino acid sequences for entries named in this document (tags omitted). Residues count along the entry.
UniProt P49773: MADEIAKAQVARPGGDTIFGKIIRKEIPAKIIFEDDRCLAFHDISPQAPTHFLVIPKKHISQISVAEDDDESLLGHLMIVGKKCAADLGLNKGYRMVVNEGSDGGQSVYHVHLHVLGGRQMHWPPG
UniProt P52948, residues 1-880: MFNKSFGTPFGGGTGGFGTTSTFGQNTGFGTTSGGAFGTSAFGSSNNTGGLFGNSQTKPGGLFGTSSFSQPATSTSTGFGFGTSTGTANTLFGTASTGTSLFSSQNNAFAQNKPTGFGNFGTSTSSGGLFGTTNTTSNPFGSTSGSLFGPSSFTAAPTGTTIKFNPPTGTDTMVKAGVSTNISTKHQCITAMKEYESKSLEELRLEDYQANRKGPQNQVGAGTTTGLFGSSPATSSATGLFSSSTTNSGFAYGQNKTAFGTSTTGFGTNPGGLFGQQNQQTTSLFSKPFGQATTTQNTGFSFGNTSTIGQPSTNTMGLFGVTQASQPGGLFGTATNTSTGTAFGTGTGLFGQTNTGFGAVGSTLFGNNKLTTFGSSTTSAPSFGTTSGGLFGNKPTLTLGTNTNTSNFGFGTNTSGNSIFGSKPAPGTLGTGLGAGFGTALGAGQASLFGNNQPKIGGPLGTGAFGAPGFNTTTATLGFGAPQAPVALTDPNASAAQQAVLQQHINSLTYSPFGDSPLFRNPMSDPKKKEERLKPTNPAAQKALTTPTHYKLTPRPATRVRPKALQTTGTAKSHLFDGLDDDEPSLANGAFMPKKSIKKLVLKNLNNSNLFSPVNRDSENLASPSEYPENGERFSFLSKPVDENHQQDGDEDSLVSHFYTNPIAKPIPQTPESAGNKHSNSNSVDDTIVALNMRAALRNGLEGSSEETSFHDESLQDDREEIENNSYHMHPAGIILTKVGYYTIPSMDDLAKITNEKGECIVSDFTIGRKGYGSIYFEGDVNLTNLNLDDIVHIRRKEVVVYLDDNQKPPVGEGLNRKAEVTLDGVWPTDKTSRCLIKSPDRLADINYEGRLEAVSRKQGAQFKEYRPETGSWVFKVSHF

These are yes or no findings as the source states them, for the method shown. In cells and extracts the contact can be indirect. Here binding means that the protein was enriched with, or labelled near, the bait; the list need not be complete.

Take “NUP98 identified by mass spectrometry in the HINT1 immunoprecipitate (cells not stated) (from UniProt P52948 1-880)”: the binding result is on record as “binds”.
